Literature values as cited in patent US10945961B2, “Method using enteric-coated etidronate for treating calcification, hypercalcaemia, and calcinosis of the brain and other organs” (ZY YTHERAPEUTICS LLC, priority 2017, dated 2021).

Tested on: patients with brain calcifications (Fahr's Disease)
Details: patients with brain calcification

## NCCCC(O)(P(=O)(O)O)P(=O)(O)O [alendronate]
  symptomatic effect (seizures, headaches, Parkinsonian symptoms): symptomatic relief in a large patient population but not as significantly as with disodium etidronate
